Assay [1] deals with GFP-IRSp53 I-BAR* (murine) (UniProt Q8BKX1). Nature of the assay: co-IP.
Assay [2] deals with recombinant purified GST-RAB35S22N (UniProt Q15286). Nature of the assay: far-Western, overlay or dot blot.
Assay [3] has the same target. The assay can be described thus: far-Western, overlay or dot blot. This is another data set of the same source.
Assay [4] has as its target recombinant purified RAB35Q67L (UniProt Q15286). The assay can be described thus: far-Western, overlay or dot blot.
In the next assay the target is Flag-IRSp53 (UniProt Q8BKX1). The assay can be described thus: co-IP.

Protein sequences, listed by entry. Tags and fused reporters are not part of them. Lines headed by an entry give the natural chain unless they say otherwise; changes in a name come on top.
UniProt Q8BKX1: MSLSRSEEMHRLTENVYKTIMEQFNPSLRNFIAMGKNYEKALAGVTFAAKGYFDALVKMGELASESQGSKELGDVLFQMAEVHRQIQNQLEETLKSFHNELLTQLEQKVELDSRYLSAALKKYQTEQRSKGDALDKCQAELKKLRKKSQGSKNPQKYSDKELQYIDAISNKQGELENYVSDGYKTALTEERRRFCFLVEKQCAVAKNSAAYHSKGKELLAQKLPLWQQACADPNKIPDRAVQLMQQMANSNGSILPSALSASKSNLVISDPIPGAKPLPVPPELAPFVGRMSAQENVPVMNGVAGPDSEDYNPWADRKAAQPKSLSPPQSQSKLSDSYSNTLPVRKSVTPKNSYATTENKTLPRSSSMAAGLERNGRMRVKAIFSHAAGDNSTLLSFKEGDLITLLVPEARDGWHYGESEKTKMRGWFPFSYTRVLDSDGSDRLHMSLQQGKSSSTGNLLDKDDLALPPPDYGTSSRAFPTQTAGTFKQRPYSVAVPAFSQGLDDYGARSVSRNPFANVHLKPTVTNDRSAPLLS
UniProt Q15286: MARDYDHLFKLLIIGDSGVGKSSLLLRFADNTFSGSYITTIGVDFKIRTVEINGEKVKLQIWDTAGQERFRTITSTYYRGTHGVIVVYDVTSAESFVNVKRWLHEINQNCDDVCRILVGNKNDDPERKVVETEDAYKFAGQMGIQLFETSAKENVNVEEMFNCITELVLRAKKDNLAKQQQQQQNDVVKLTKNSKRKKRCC

Read-outs that look alike come from different tables or passages of the source. Results are given in words; binding and its absence hold for the method and conditions named. For part of these data: In cells and extracts the contact can be indirect. Some binding calls cover weakened binding; strength is not graded here.

Turning to “RFP-RAB35S22N (from UniProt Q15286 1-201)”, the binding entry in assay [1] is reported as “no binding”.

Take “recombinant purified IRSp53 full-length WT (from UniProt Q8BKX1 1-535)”: the binding result in assay [2], in assay [3] and in assay [4] was “binds” in each case. Regarding “recombinant purified IRSp53 I-BAR* (K142E, K143E, K146E, K147E) (from UniProt Q8BKX1 1-535)”, the binding entry in assay [3] was “no binding (tested: 30 nM)”. As for GFP-RAB35 (from UniProt Q15286 1-201), the binding result with Flag-IRSp53 was “binds”.

These data come from paper doi:10.1101/856369.
